According to PubChem BioAssay AID2685 (National Center for Advancing Translational Sciences (NCATS), 2010):
Screen size: about 320,000 compounds; about 2,100 (0.66%) were called active. Inconclusive results, whose numbers are uncertain, are shown with a selection of clear calls. Calls come from the whole dose curve; as a rule, active = well fitted inhibition curve with a large enough effect in the signal ratio, with a control signal flat (not every such curve was filed as active); inconclusive = small, poorly fitted or top-dose-only effect, or effect the other way, or a change in a side signal; inactive = flat fitted curve, though single readings scatter; the % refers to the signal ratio. Potencies beside an inconclusive call are fits to weak or partial responses and may not hold up.

Assay: qHTS Assay for Lipid Storage Modulators in Drosophila S3 Cells
Settings: BODIPY lipid droplet fluorescence, 18-24 h, cells fed with added oleic acid; lipid storage change, negative = inhibition: at 46.1 µM (top of the series) unless noted
Procedure, shortened: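 Laser-scanning cytometry quantifies lipid droplet accumulation (500–530 nm total intensity; droplet/cell object ratio) in oleic acid-fed (400 uM added) Drosophila S3 cells treated with a concentration series. 20 uM Triacsin C defined 100% inhibition.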
% is set by controls: 0 for no effect and ±100 for the full control effect; potency is the fitted concentration of half-maximal effect.

Row | Compound | lipid storage change, negative = inhibition | Potency
1 | CC(=O)c1ccc(NC(=O)Cn2cnc(S(=O)(=O)N3CCCCC3)c2)cc1 | inconclusive: 87.9% | 
2 | Cc1ccc(C2=CC(=O)C[C@H](c3ccc(Cl)cc3)C2)cc1 | inconclusive: -0.631% | 
3 | O=C(NCCc1csc(-c2ccccc2)n1)c1ccco1 | inconclusive: 15.6% | 
4 | COc1ccccc1/C=N/NC(=O)c1c(-c2ccccc2)noc1C | inconclusive: 65% | 
5 | CCOCc1nc(C)c(Cl)c(NS(=O)(=O)c2ccc(N)cc2)n1 | inconclusive: -7.03% | 
6 | Cc1cc(OCC(=O)NC2CC(C)(C)NC(C)(C)C2)c(C)cc1Br |  | inconclusive: 20.6 µM [activator, single point]
7 | CCCOc1ccc(S(=O)(=O)Nc2ccccn2)c2ccccc12 | inconclusive: 22.9% | 
8 | O=S(=O)(Nc1ccccc1O)c1cccc2cccnc12 | inconclusive: -29.4% | 
9 | O=C(NNC(=O)c1ccc2ccccc2c1O)Nc1ccc(F)cc1 | inactive | 
10 | CCOC(=O)C1(C)NC(c2ccco2)C2C(=O)N(c3ccccc3)C(=O)C21 (centres undefined) | inconclusive: 12.4% | 
11 | CCn1c(CNc2ccc(F)cc2)nnc1SCC(=O)OC1CCCCC1 |  | inconclusive: 16.4 µM [falling, partial curve]
12 | O=C(CSc1nnc(NC(=O)c2ccc(F)cc2)s1)NC1CC1 |  | inconclusive: 29.1 µM [activator, single point]
13 | CCOc1ccccc1N1C(=O)CC(N(O)c2ccccc2)C1=O (centres undefined) | inconclusive: -10.2% | 
14 | Cc1c(N2C(=O)CSC2=S)c(=O)n(-c2ccccc2)n1C |  | inconclusive: 6.51 µM [cytotoxic, single point]
15 | Cc1ccc2c(c1)CCCN2C(=O)c1ccco1 |  | inconclusive: 20.6 µM [activator, partial curve]
16 | O=C(NCc1cccnc1)c1cc(C(=O)C2CC2)c[nH]1 | inconclusive: 2.28% | 
17 | CC(C)CCNC(=O)CCCn1c(=O)[nH]c2ccc(Br)cc2c1=O | inconclusive: 36.6% | 
18 | O=C(O)c1ccc(N2CC3CC(C2)c2cccc(=O)n2C3)c(NS(=O)(=O)c2cccc(C(F)(F)F)c2)c1 (centres undefined) | inconclusive: 0.0985% | 
19 | COCCCn1c(SCC(=O)Nc2ccc(C)cc2)nc2ccccc2c1=O | inactive | 
20 | COCCNC(=O)C(Cc1c[nH]c2ccccc12)NC(=O)OCc1ccccc1 (centres undefined) | inconclusive: -22.8% | 
21 | CN(CC(=O)Nc1ccc(Cl)cc1)C(=O)C1CCCC1 | inconclusive | 
22 | Cc1csc(CN(C)C(=O)CC2C(=O)NCCN2Cc2ccc(-c3ccccc3)cc2)n1 (centres undefined) | inconclusive: 9.9% | 
23 | O=C(NC(=S)Nc1ccccc1[N+](=O)[O-])c1ccccc1Cl | inconclusive: 9.81% | 
24 | Cc1ccc(NC(=O)N2CCCCCC2)c(C)c1 | inconclusive: -3.36% | 
25 | CC(C)c1nc2sc3c(NCc4ccccc4)ncnc3c2c2c1COC(C)(C)C2 |  | inconclusive: 1.84 µM [activator, partial curve]
26 | O=C(O)CNC(=O)CC1S/C(=N/N=C/c2ccccc2O)NC1=O (centres undefined) | inconclusive: 4.4% | 
27 | NC(=O)C1CCN(C(=O)c2ccc3nc(-c4ccccc4)c(-c4ccccc4)nc3c2)CC1 | inconclusive: -130% | 

A different layout for 18 compounds above:
Row	Compound	lipid storage change, negative = inhibition	Potency
1	CC(=O)c1ccc(NC(=O)Cn2cnc(S(=O)(=O)N3CCCCC3)c2)cc1	inconclusive: 87.9%	
2	Cc1ccc(C2=CC(=O)C[C@H](c3ccc(Cl)cc3)C2)cc1	inconclusive: -0.631%	
3	O=C(NCCc1csc(-c2ccccc2)n1)c1ccco1	inconclusive: 15.6%	
5	CCOCc1nc(C)c(Cl)c(NS(=O)(=O)c2ccc(N)cc2)n1	inconclusive: -7.03%	
6	Cc1cc(OCC(=O)NC2CC(C)(C)NC(C)(C)C2)c(C)cc1Br		inconclusive: 20.6 µM [activator, single point]
8	O=S(=O)(Nc1ccccc1O)c1cccc2cccnc12	inconclusive: -29.4%	
9	O=C(NNC(=O)c1ccc2ccccc2c1O)Nc1ccc(F)cc1	inactive	
11	CCn1c(CNc2ccc(F)cc2)nnc1SCC(=O)OC1CCCCC1		inconclusive: 16.4 µM [falling, partial curve]
14	Cc1c(N2C(=O)CSC2=S)c(=O)n(-c2ccccc2)n1C		inconclusive: 6.51 µM [cytotoxic, single point]
15	Cc1ccc2c(c1)CCCN2C(=O)c1ccco1		inconclusive: 20.6 µM [activator, partial curve]
16	O=C(NCc1cccnc1)c1cc(C(=O)C2CC2)c[nH]1	inconclusive: 2.28%	
17	CC(C)CCNC(=O)CCCn1c(=O)[nH]c2ccc(Br)cc2c1=O	inconclusive: 36.6%	
19	COCCCn1c(SCC(=O)Nc2ccc(C)cc2)nc2ccccc2c1=O	inactive	
21	CN(CC(=O)Nc1ccc(Cl)cc1)C(=O)C1CCCC1	inconclusive	
22	Cc1csc(CN(C)C(=O)CC2C(=O)NCCN2Cc2ccc(-c3ccccc3)cc2)n1 (centres undefined)	inconclusive: 9.9%	
23	O=C(NC(=S)Nc1ccccc1[N+](=O)[O-])c1ccccc1Cl	inconclusive: 9.81%	
24	Cc1ccc(NC(=O)N2CCCCCC2)c(C)c1	inconclusive: -3.36%	
26	O=C(O)CNC(=O)CC1S/C(=N/N=C/c2ccccc2O)NC1=O (centres undefined)	inconclusive: 4.4%	

Rewritten with tabs: entries from further up.
Row	Compound	lipid storage change, negative = inhibition	Potency
13	CCOc1ccccc1N1C(=O)CC(N(O)c2ccccc2)C1=O (centres undefined)	inconclusive: -10.2%	
14	Cc1c(N2C(=O)CSC2=S)c(=O)n(-c2ccccc2)n1C		inconclusive: 6.51 µM [cytotoxic, single point]

Later entries.

Row | Compound | lipid storage change, negative = inhibition | Potency
28 | O=C(N/C(=C\c1ccco1)C(=O)N1CCCC(CO)C1)c1ccccc1 (centres undefined) | inconclusive: -18.4% | 
29 | O=C(CN1CCN(Cc2ccccc2)CC1)Nc1ccccc1 | inconclusive: 8.23% | 
30 | O=C(NC1CCCc2ccccc21)c1cn2ccccc2n1 (centres undefined) | inconclusive: 27.3% | 
31 | O=C(O)c1ccc(S(=O)(=O)N2CCCc3ccccc32)cc1 | inconclusive: -17.1% | 
32 | COc1ccc(Nc2ncnc3nc[nH]c23)cc1OC | inconclusive: 39.4% | 
33 | Cc1cccc(-c2noc(CN(C)C(=O)c3ccco3)n2)c1 | inconclusive: -50.5% | 
34 | Cn1c(=O)c2[nH]c(-c3ccccc3Cl)c(O)c2n(C)c1=O | inconclusive: 10.2% | 
35 | COc1cc(NC(=O)c2ccccc2F)c(OC)cc1NC(=O)CN1CCCCC1 |  | inconclusive: 0.13 µM [activator, single point]
36 | CCc1ccc(-c2ccc(SCC(=O)Nc3nnc(C)s3)nn2)cc1 | inconclusive: -24.3% [at 9.22 µM] | 
37 | COC(=O)c1ccc(Cc2ccccc2)o1 |  | active: 25.9 µM
38 | O=[N+]([O-])c1ccc(N/N=C2\CC3CC=CC23)c([N+](=O)[O-])c1 (centres undefined) | inconclusive: 1.64% | 
39 | Cc1ccc(/C=N/Nc2nnc(Cc3ccccc3)c(=O)[nH]2)o1 | inconclusive: -2.1% | 
40 | CCCN(CC(=O)Nc1ccccc1OC)C(=O)c1ccc2[nH]c3c(c2c1)CC(C)CC3 (centres undefined) |  | inconclusive: 5.8 µM [falling, full curve, poor fit]
41 | CC(C)(C)S(=O)(=O)c1cnc2c(-c3ccsc3)cnn2c1N | inconclusive: -13% | 
42 | Nc1nc(N)nc(-c2cc(F)ccc2O)n1 | inconclusive: -11.6% | 
43 | Cc1ccc(NC(=O)C2CCN(S(=O)(=O)c3ccc4c(c3)CCCC(=O)N4)CC2)cc1N(C)C |  | inconclusive: 29.1 µM [activator, single point]
44 | CN(C)C(=O)[C@H]1C[C@H]1[C@@H](O)[C@H](CO)NC(=O)[C@H](COCc1ccccc1)NC(=O)OC(C)(C)C |  | inconclusive: 6.51 µM [rising, single point]
45 | CCn1c(C)c(C)c2cc(C(=O)NCCN3CCCCCC3)ccc21 |  | inconclusive: 6.51 µM [activator, single point]
46 | O=C(CSc1ccc(F)cc1)Nc1ccccc1Br | inconclusive: -3.54% | 
47 | O=C(CSc1nnc(CNC(=O)c2c(F)cccc2Cl)o1)NCCc1ccccc1 |  | inconclusive: 6.51 µM [activator, single point]
48 | CCOc1cccc(OCCOCCNC(C)(C)C)c1 | inconclusive: -15.5% | 
49 | CC1(C)NC(=O)N(CCOCCOc2cccc(Oc3ccccc3)c2)C1=O | inconclusive: 120% | 
50 | Cc1cc(C)cc(OCC(=O)N/N=C/c2ccncc2)c1 | inconclusive: 13.8% | 
51 | COCCn1c(C(F)(F)F)ccc(NC(=O)c2ccccc2)c1=O |  | active: 8.2 µM
52 | O=C(CNC(=O)c1cc(Cl)nc2ccccc12)Nc1ccccc1Br | inconclusive: 7.7% | 
53 | CCOc1cc(/C=C2\N=C(SC(C)C(N)=O)N(c3ccc(OC(F)F)cc3)C2=O)ccc1O (centres undefined) |  | inconclusive: 14.6 µM [falling, single point]
54 | Cc1ccc(C(=O)Nc2nc3ccccc3n2CCN2CCCC2)cc1 | inconclusive: 16.4% | 

Row | Compound | lipid storage change, negative = inhibition | Potency
55 | Cc1ccc(-c2cc(C(=O)N3CCc4ccccc4C3)no2)cc1 |  | inconclusive: 6.51 µM [falling, single point]
56 | COc1ccc(NC(=O)CNc2cc(C)ccc2C)cc1S(=O)(=O)N1CCOCC1 | inconclusive: 8.34% | 
57 | CCCCNC(=O)Nc1ccccc1C(=O)Nc1ccc(OC)cc1 |  | inconclusive: 2.31 µM [rising, single point]
58 | COc1cccc(-c2nc(CS(=O)(=O)CC(=O)Nc3ccc(F)cc3F)c(C)o2)c1 |  | inconclusive: 4.61 µM [activator, partial curve]
59 | C1CCC(CNc2c3c(nc4nnnn24)CCCC3)CC1 |  | inconclusive: 1.03 µM [activator, full curve]
60 | Cc1ccc(C)c(OCCC(=O)Nc2cccc(S(=O)(=O)NC3=NCCCCC3)c2)c1 |  | inconclusive: 5.8 µM [falling, full curve, poor fit]
61 | Cc1ccc(-n2nc3c(=O)n(CCCC(=O)NCc4cccc(Cl)c4)nc(C)c3c2C)cc1 |  | inconclusive: 0.731 µM [activator, full curve]
62 | CC1=NN(c2ccc(Br)cc2)C(=O)/C1=C/c1ccc(-c2ccccc2C(=O)O)o1 | inconclusive: 9.99% | 
63 | Cc1cc(NC(=O)c2ccccc2Cl)c(C(C)C)cc1O | inconclusive: -24.4% | 
64 | O=C(O)c1cccc(OCCN2CCCC2=O)c1 | inconclusive: 204% | 
65 | COCCN(Cc1ccccc1)C(=O)c1cccc(S(=O)(=O)N2CCCc3ccccc32)c1 |  | inconclusive: 29.1 µM [falling, single point]
66 | O=C(c1ccc([N+](=O)[O-])o1)N1CCc2ccccc21 | inconclusive: -6.71% | 
67 | CC1CCCCN1c1ncnc(N)c1[N+](=O)[O-] (centres undefined) | inconclusive: 11% | 
68 | COc1cc(/C=N/NC(=O)c2ccncc2)ccc1OCC(=O)Nc1ccccc1 |  | inconclusive: 5.17 µM [falling, single point]
69 | CCC(=O)Nc1c(C(=O)Nc2cccc(OC)c2)oc2ccccc12 |  | inconclusive: 29.1 µM [falling, single point]
70 | Cc1cccc(CN2CCc3c([nH]c4ccccc34)C2CC(C)C)n1 (centres undefined) | inconclusive: -29.4% | 
71 | COc1ccc(O)c(C(=O)c2cnc3c(c2)CN(C)C(=O)N3)c1 | inconclusive: 0.171% | 
72 | COCCN(Cc1cc2cc3c(cc2[nH]c1=O)OCO3)C(=O)c1cccs1 | inconclusive: -9.53% | 
73 | CC1(C)CC(c2nc(-c3ccc([N+](=O)[O-])cc3)cs2)CCO1 (centres undefined) | inconclusive: 13.6% | 
74 | COCCn1c(SCC(=O)N2CCc3ccccc3C2)nc2cc(Cl)ccc2c1=O | inconclusive: 68.4% | 
75 | Cc1cc(F)ccc1NCC(=O)Nc1ccc(Br)cc1C | inconclusive: -12.9% | 
76 | CN(C)C(=O)c1ccc(-c2cc(C(F)(F)F)n(C)n2)s1 | inconclusive: 11.1% | 
77 | COc1ccccc1N(C(=O)c1cncc(Br)c1)c1nc(-c2ccc(C)cc2)cs1 | inconclusive: -22.7% | 
78 | CCOC(=O)CCNCc1ccc(OC)c(OC)c1 | inconclusive: -17.9% | 
79 | C/C(Nc1ccccc1C(F)(F)F)=C1/CCOC1=O | inconclusive: 29.7% | 
